The target of experiment [1] is JUN in MDA-MB-231 cells (human (endogenous in MDA-MB-231)) (UniProt P05412). Kind of experiment: co-IP; MDA-MB-231 cells treated with SB203580 or not; IP with anti-JUN or anti-JAB1 polyclonal antibody, western blot for the other.
The target of experiment [2] is MAPKAPK2 (MK2), endogenous in MDA-MB-231 cells (human (endogenous in MDA-MB-231)) (UniProt P49137). As to the kind of experiment: co-IP; endogenous proteins of MDA-MB-231 cells; IP with antibody against MK2 or against JAB1, western blot for the other; IP buffer 50 mM Tris HCl, 150 mM NaCl, 1% NP40.
For experiment [3], the target named is JUN activation domain-binding protein 1 (JAB1), endogenous in MDA-MB-231 cells (human (endogenous in MDA-MB-231)) (UniProt Q92905). Kind of experiment: co-IP; MDA-MB-231 cells treated with SB203580 or not; IP with anti-JUN or anti-JAB1 polyclonal antibody, western blot for the other.
Experiment [4] has as its target HA-tagged JAB1 (transduced into MDA-MB-231) (human) (UniProt Q92905). Kind of experiment: co-IP; MDA-MB-231 cells transduced with HA-tagged JAB1, JAB1D or JAB1A; IP with HA mAb, western blot with anti-JUN polyclonal antibody.
Experiment [5] concerns the target HA-tagged JAB1A (JAB1-S177A, MK2-nonphosphorylatable mutant) (human) (UniProt Q92905). The experiment is described as above.
The target of experiment [6] is HA-tagged JAB1D (JAB1-S177D, MK2-phosphomimetic mutant) (human) (UniProt Q92905). The description is as above.
Experiment [7] has as its target JUN activation domain-binding protein 1 (JAB1), endogenous in MDA-MB-231 cells (human (endogenous in MDA-MB-231)) (UniProt Q92905). Kind of experiment: co-IP; endogenous proteins of MDA-MB-231 cells; IP with antibody against MK2 or against JAB1, western blot for the other; IP buffer 50 mM Tris HCl, 150 mM NaCl, 1% NP40.
Experiment [8] has as its target JAB1, endogenous in HEK293 cells (human (endogenous in HEK293)) (UniProt Q92905). Kind of experiment: co-IP; HEK293 cells transfected with Myc-tagged MK2, MK2-CA or MK2-DN; IP with an antibody against JAB1, immunoblotting.
Experiment [9] concerns the target T1, JUN in MDA-MB-231 cells (human (endogenous in MDA-MB-231)), P05412.
T1 chain: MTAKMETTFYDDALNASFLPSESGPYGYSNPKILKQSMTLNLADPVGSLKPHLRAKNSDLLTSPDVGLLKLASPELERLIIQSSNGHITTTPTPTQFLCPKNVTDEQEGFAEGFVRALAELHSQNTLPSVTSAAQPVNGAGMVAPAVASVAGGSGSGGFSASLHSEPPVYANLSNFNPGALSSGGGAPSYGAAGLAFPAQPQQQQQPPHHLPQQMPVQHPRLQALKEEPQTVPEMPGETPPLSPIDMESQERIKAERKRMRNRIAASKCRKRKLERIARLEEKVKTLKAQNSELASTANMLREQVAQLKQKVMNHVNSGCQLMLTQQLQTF
Kind of experiment: co-IP; MDA-MB-231 cell lysates, with or without knockdown of JAB1; JUN homo-dimerization and hetero-dimerization with Fra-1 and ATF2. The conditions noted are these: remark: other sources report otherwise.

Protein sequences, listed by entry. Tags and fused reporters are not part of them. Lines headed by an entry give the natural chain unless they say otherwise; changes in a name come on top.
UniProt P49137: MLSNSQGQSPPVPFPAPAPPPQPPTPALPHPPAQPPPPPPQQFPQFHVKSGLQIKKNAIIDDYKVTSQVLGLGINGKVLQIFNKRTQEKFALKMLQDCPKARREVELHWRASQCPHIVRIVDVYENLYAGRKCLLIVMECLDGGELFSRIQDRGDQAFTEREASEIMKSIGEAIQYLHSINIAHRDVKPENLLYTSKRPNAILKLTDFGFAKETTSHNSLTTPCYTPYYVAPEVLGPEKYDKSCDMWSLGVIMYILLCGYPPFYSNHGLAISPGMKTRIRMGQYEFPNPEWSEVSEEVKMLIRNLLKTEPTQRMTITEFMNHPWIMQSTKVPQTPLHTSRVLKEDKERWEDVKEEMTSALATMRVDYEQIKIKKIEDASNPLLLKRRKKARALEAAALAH
UniProt Q92905: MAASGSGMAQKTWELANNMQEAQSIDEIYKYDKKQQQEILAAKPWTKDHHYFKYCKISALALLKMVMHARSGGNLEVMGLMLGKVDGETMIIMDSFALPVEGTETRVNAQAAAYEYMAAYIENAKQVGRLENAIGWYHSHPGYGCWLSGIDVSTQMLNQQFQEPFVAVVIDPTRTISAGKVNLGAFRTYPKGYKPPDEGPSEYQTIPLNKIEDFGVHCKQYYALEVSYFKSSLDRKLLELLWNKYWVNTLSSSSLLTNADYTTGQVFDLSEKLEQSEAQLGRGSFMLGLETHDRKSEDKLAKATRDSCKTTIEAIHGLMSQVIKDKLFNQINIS

Experiment [10] addresses JUN in MDA-MB-231 cells (human (endogenous in MDA-MB-231)) (UniProt P05412). Described as above.

These are yes or no findings as the source states them, for the method shown. In cells and extracts the contact can be indirect. Some entries that bind do so weakly or less than the wild type.

As for “JUN activation domain-binding protein 1 (JAB1), endogenous in MDA-MB-231 cells (from UniProt Q92905 1-334)”, the binding result in experiment [1] and in experiment [2] was “binds” throughout.
As to “JUN in MDA-MB-231 cells (from UniProt P05412 1-331)”, the binding entry in [3], in experiment [4], in experiment [5] and in [6] was “binds” in each case.
As to “MAPKAPK2 (MK2), endogenous in MDA-MB-231 cells (from UniProt P49137 1-400) (enzyme)”, in experiment [7], the binding entry is recorded as “binds”.
In the case of “Myc-tagged wild-type MK2 (from UniProt P49137 1-400) (enzyme)”, in experiment [8], the binding result is “binds”.

B1: JUN in MDA-MB-231 cells, P05412 1-331 (protein)
chain: MTAKMETTFYDDALNASFLPSESGPYGYSNPKILKQSMTLNLADPVGSLKPHLRAKNSDLLTSPDVGLLKLASPELERLIIQSSNGHITTTPTPTQFLCPKNVTDEQEGFAEGFVRALAELHSQNTLPSVTSAAQPVNGAGMVAPAVASVAGGSGSGGFSASLHSEPPVYANLSNFNPGALSSGGGAPSYGAAGLAFPAQPQQQQQPPHHLPQQMPVQHPRLQALKEEPQTVPEMPGETPPLSPIDMESQERIKAERKRMRNRIAASKCRKRKLERIARLEEKVKTLKAQNSELASTANMLREQVAQLKQKVMNHVNSGCQLMLTQQLQTF
On to B1, for which the binding result in experiment [9] is listed as “binds”.

B2: Fra-1 in MDA-MB-231 cells (protein, UniProt P15407 1-271)
chain: MFRDFGEPGPSSGNGGGYGGPAQPPAAAQAAQQKFHLVPSINTMSGSQELQWMVQPHFLGPSSYPRPLTYPQYSPPQPRPGVIRALGPPPGVRRRPCEQISPEEEERRRVRRERNKLAAAKCRNRRKELTDFLQAETDKLEDEKSGLQREIEELQKQKERLELVLEAHRPICKIPEGAKEGDTGSTSGTSSPPAPCRPVPCISLSPGPVLEPEALHTPTLMTTPSLTPFTPSLVFTYPSTPEPCASAHRKSSSSSGDPSSDPLGSPTLLAL
B2: in [10], the binding entry is given as “binds”.

B3: ATF2 in MDA-MB-231 cells, P15336 1-505 (protein)
chain: MKFKLHVNSARQYKDLWNMSDDKPFLCTAPGCGQRFTNEDHLAVHKHKHEMTLKFGPARNDSVIVADQTPTPTRFLKNCEEVGLFNELASPFENEFKKASEDDIKKMPLDLSPLATPIIRSKIEEPSVVETTHQDSPLPHPESTTSDEKEVPLAQTAQPTSAIVRPASLQVPNVLLTSSDSSVIIQQAVPSPTSSTVITQAPSSNRPIVPVPGPFPLLLHLPNGQTMPVAIPASITSSNVHVPAAVPLVRPVTMVPSVPGIPGPSSPQPVQSEAKMRLKAALTQQHPPVTNGDTVKGHGSGLVRTQSEESRPQSLQQPATSTTETPASPAHTTPQTQSTSGRRRRAANEDPDEKRRKFLERNRAAASRCRQKRKVWVQSLEKKAEDLSSLNGQLQSEVTLLRNEVAQLKQLLLAHKDCPVTAMQKKSGYHTADKDDSSEDISVPSSPHTEAIQHSSVSTSNGVSSTSKAEAVATSVLTQMADQSTEPALSQIVMAPSSQSQPSGS
Turning to B3, in experiment [9], the binding result is given as “binds”.

(Values after paper PMC8270897.)
